# Primary screen of a compound library

Amino acid sequences for entries named in this document (tags omitted). Residues count along the entry.
UniProt Q4DA54, 1-478: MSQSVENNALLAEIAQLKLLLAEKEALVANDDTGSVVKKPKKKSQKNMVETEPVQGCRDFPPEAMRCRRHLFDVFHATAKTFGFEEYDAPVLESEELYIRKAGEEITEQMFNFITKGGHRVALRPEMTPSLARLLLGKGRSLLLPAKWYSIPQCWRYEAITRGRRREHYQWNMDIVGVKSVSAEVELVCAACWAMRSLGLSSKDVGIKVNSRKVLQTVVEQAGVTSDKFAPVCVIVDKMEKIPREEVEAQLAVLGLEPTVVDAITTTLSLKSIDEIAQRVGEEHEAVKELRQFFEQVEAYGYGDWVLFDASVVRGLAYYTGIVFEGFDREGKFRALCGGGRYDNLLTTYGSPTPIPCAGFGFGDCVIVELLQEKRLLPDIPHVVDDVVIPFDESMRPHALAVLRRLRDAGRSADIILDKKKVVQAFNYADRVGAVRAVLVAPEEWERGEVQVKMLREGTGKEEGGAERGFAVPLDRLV

Measurements from “University of Dundee, Small-Polar-MMV Screening Library” (2021), ChEMBL document CHEMBL3988442.

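Enzyme assay of histidyl-tRNA synthetase; the read-out is not stated. Target: Histidine-tRNA ligase, Trypanosoma cruzi CL Brener (UniProt Q4DA54). Tested at 30 µM. The record gives no direction; compounds that gave an IC50 in retests scored well above the rest, so higher reads as stronger inhibition. Size under these conditions: about 69,000 compounds, about 31 of them at 50% or above in at least one test.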

The filed quantity is “Percent Effect” (%). How 0% and 100% were set is not recorded. Most values in the screen are low, and negative values occur. Compounds were drawn at random from those tested, without regard to their results.

structure | Percent Effect
c1ccc(CN2CCOC3(CCN(c4ncccn4)CC3)C2)nc1 | 8.602
Cc1cc(C)n(-c2ccc(N3CCC4(CC3)OCCO4)nc2)n1 | 3.191
CCN(CC(=O)Nc1cc(C(C)(C)C)no1)Cc1ccc(Cl)s1 | 3.448
Cn1ccnc1CN1CCN(CC(=O)NCc2ccccc2F)CC1 | 5.814
CS(=O)(=O)NCc1noc2c1CN(C(=O)c1ccsc1)CC2 | 0
COCC(=O)N1CCC2(CC1)CN(CC1CC1)c1ccc(F)cc12 | 7.538
CCOc1ccccc1C(CC(=O)Nc1nc(C)cs1)NC(C)=O (stereo unspecified) | 1.141
COC(=O)c1ccc(C(=O)N2CCCC(Nc3ccc(F)cc3)C2)cc1 (stereo unspecified) | 2.513
COc1ccc2nnc(CCCC(=O)Nc3nc4c(s3)CCC4)n2n1 | -0.9901
CCCN1CCC(NCc2cccc(CN3CCOC(C)C3)c2)CC1 (stereo unspecified) | 1.818
CC(C)(C)NC(=O)N1CCN2C(=O)OCC2C1 (stereo unspecified) | 0
CN1CCCC1c1nnc2n1CCN(S(=O)(=O)c1ccccc1Cl)CC2 (stereo unspecified) | 10.34
CC(C)C(O)C(=O)N1CCC2(CC1)c1nc[nH]c1CCN2S(C)(=O)=O (stereo unspecified) | -2.041
COCCN1CCn2cc(CN(C)Cc3ccco3)nc2C1 | 7.143
O=C(CC1Cn2ncnc2NC1=O)Nc1ccccc1 (stereo unspecified) | 5.325
CN(Cc1ccccc1NCc1cccnc1)C(=O)c1cccs1 | 6.557
Cn1cc(-c2ncc(C(=O)NCCCn3ccccc3=O)s2)cn1 | 10
CC(C)N1CCOCC2(CN(Cc3nccs3)CCO2)C1 (stereo unspecified) | 1.087
COCCNc1ccc(-c2noc([C@@H]3CCCN3)n2)cn1 | 0
CCS(=O)(=O)N1CCCn2cnc(COc3cccnc3)c2C1 | 3.333
Cc1cccc(CN2CCC3(CC2)NC(=O)C[C@H]3c2cnn(C)c2)n1 | 4.762
Cc1cccc(OCC2CCCN(C(=O)Cn3ccccc3=O)C2)c1 (stereo unspecified) | 3.004
COc1cccc(OCC2CCCN(C(=O)CCCn3cccn3)C2)c1 (stereo unspecified) | 3.922
COCC1CC2(CCN(Cc3ccc(OC)cc3)CC2)CN1C(C)C (stereo unspecified) | 0.5464
CC(C)(C)C(=O)N1CC[C@@H]2[C@H](CC1)N(S(C)(=O)=O)CCS2(=O)=O | 6.25
Cn1cnc2cc(CCC(=O)Nc3n[nH]c(C4CC4)n3)ccc21 | 6.736
CC(=O)NCC(=O)N1Cc2ccnn2CC(COCCN(C)C)C1 (stereo unspecified) | 2.941
N#Cc1ccc(Cl)cc1N1CCC(OC2CCOCC2)CC1 | 1.205
CCn1cc(NC(=O)NC(CO)Cc2c[nH]c3ccccc23)cn1 (stereo unspecified) | 15.58
COc1cccc(CNC(=O)CCC2=Nc3ccccc3S(=O)(=O)N2)c1 | 11
CN(C)C(=O)C1CCC2(CCNCC2)C1 (stereo unspecified) | 3.883
O=C(c1ccc2c(c1)OCO2)N1CCN2C(=O)NC[C@H]2C1 | 9.901
CS(=O)(=O)N1CCCC12CCN(Cc1nccs1)CC2 | 5.376
NCC(=O)N1CCCC(c2cncc(Nc3ncccn3)n2)C1 (stereo unspecified) | 3.784
COc1ccc(CN2CCN(S(=O)(=O)c3cc(C(=O)O)cs3)CC2)cc1 | 1.961
COc1ccc(CN2C[C@@H]3CC[C@H](C2)N(Cc2snnc2C)C3)cc1 | 11.39
CCc1nc(C2CCCN2C(=O)c2nc(C)n3ccccc23)no1 (stereo unspecified) | 1.887
CC1=CC[C@@H]2CN(C(=O)c3ccc(-c4nc[nH]n4)cc3)C[C@@H]2C1 | 2.4
O=C(N[C@@H]1CCNC[C@H]1O)c1ccc(-c2ccc(F)cc2)cc1 | 4.167
CC(C)N(C)C(=O)c1ccc(CNc2ccncc2Cl)cc1 | 1.84
CC(C)CCN1CC2(CCN(C(=O)C3(C)CCCCO3)CC2)OC1=O (stereo unspecified) | 4.938
Cc1c(F)cc(C(=O)O)cc1S(=O)(=O)Nc1ccc(F)c(C#N)c1 | -4.298
Cc1csc(N2CCN(Cc3cscn3)CC2C)n1 (stereo unspecified) | 4.878
COc1ccccc1OCCNC(=O)N1CCC(n2cncn2)CC1 | 2.006
Cc1nnc(SCC(=O)N2CCC3(CC2)c2ccccc2CC3O)o1 (stereo unspecified) | 0.8368
CCN1CCN(C[C@@H]2CN(c3ncc(Cl)cc3F)C[C@@H]2CO)CC1 | 0.5128
CC(C)Nc1ncnc2c1CCN(c1cc(C(F)(F)F)ncn1)CC2 | 8.458
COc1ccc(F)c(F)c1C(=O)N1C[C@@H](CN(C)CCO)[C@@H](CO)C1 | 3.061
Cc1n[nH]c(C)c1-c1cc(-c2cc[nH]c2)nc(N)c1C#N | 12.87
Cc1csc(CNC(=O)N(C)Cc2ccc3c(c2)OCO3)n1 | -0.8403
O=C(CCCn1cncn1)N1CCCC1c1noc(C2CC2)n1 (stereo unspecified) | 3.429
CN(Cc1ccc([S+](C)[O-])cc1)c1ccccn1 (stereo unspecified) | 4.902
Cc1n[nH]c(C(=O)N2CCCC(C)CC2)c1Br (stereo unspecified) | 6.186
CCS(=O)(=O)N1CCN(C(=O)c2ccc(Cn3cc(Br)cn3)cc2)CC1 | 5.82
CNc1nc(C(=O)N2CCC3(CCCN(CCOC)C3=O)C2)cs1 (stereo unspecified) | 0
O=C(NCc1cc[nH]n1)NCC(c1ccc(F)cc1)N1CCOCC1 (stereo unspecified) | 3.817
Cn1cc(C(=O)N2CC[C@@]3(O)CCN(C4CCCCC4)C[C@H]3C2)cn1 | 3.261
c1cc(CCNc2ncnc3c2CCN(Cc2ccoc2)CC3)ccn1 | 8.046
CC(C)N1CCO[C@H]2CN(S(=O)(=O)c3ccc(C#N)cc3)C[C@H]21 | 3.743
CC(=O)N1CCC(C)(c2cc(C(=O)NCC(C)(C)C)nc(C)n2)CC1 | 3.448
CS(=O)(=O)CCCC(=O)N1CCN(CC2CC2)c2ccccc21 | 8.995
Cc1ccc(CSc2nc(N)cc(NCCC(N)=O)n2)cc1 | 10.34
CCOC(=O)[C@H]1[C@@H](O)C(=O)N(C)C12CCN(C(=O)CC(C)(C)C)CC2 | 0
CC(C)(CNc1ccc2ccc(F)cc2n1)NS(C)(=O)=O | 3.448
CC(C)C1CN(Cc2nccn2C)CCC(=O)N1CC1CC1 (stereo unspecified) | 7.143
CN1CCCN(C(=O)c2nc3c(o2)CN(C(=O)c2cccnc2)C3)CC1 | 7.843
CN(Cc1ccco1)c1ccc(C(=O)NCCCc2ccccn2)cn1 | -1.685
CN(C)C(=O)N1C[C@H]2CCC[C@@]2(COc2ccccn2)C1 | 4.918
CN(Cc1ccc(Br)s1)Cn1nc(-c2ccc(F)cc2)oc1=O | 4.202
Cc1nn(C)c2ncc(S(=O)(=O)N3CCCN4CCCC4C3)cc12 (stereo unspecified) | 3.804
Cc1noc(CCNC(=O)NCC(=O)NCc2ccccc2)n1 | 1.064
Cc1cnc(-c2nc(C3CCN(C(=O)Cc4ccsc4)CC3)no2)cn1 | 5.97
c1ccc(-n2ccc(CN3CCCC(Cn4cncn4)C3)n2)cc1 (stereo unspecified) | 7.887

5 of the entries, repeated:

- Cc1cc(C)n(-c2ccc(N3CCC4(CC3)OCCO4)nc2)n1 : 3.191%
- O=C(CC1Cn2ncnc2NC1=O)Nc1ccccc1 (stereo unspecified) : 5.325%
- Cc1n[nH]c(C(=O)N2CCCC(C)CC2)c1Br (stereo unspecified) : 6.186%
- CNc1nc(C(=O)N2CCC3(CCCN(CCOC)C3=O)C2)cs1 (stereo unspecified) : 0%
- CC(C)(C)C(=O)N1CC[C@@H]2[C@H](CC1)N(S(C)(=O)=O)CCS2(=O)=O : 6.25%